The full ranking holds about 33,000 sequences; the median of “E-score (-0.5 to 0.5)” is about -8e-05, and the highest 2% start at about 0.23. This is one part of the list.
molecular target: T1, Nrg2 (UniProt P38082); assay: PBM E-score (8-mer binding enrichment) (E-score (-0.5 to 0.5)); higher = stronger / more preferred TF binding; conditions: protein concentration: 100 nM; construct: GST-full length
T1 sequence: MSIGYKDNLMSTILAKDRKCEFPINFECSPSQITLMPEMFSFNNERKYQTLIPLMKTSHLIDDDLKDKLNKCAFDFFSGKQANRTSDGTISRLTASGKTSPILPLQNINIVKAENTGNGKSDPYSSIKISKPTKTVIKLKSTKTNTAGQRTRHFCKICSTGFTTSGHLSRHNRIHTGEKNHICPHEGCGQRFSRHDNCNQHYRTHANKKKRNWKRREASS
Protocol: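 Universal 'all 10-mer' protein binding microarrays (Agilent AMADID 015681) probed with GST-tagged S. cerevisiae TFs (full-length or DBD) made by in vitro transcription/translation (PURExpress), about 100-200 nM. Bound TF was detected with fluorescent anti-GST. Each ungapped 8-mer (which stands for itself and its reverse complement) is scored by the PBM enrichment score (E-score), a modified Wilcoxon-Mann-Whitney statistic from -0.5 to +0.5, computed with the Universal PBM Analysis Suite. Scale: above 0.35 generally sequence-specific binding.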

First: CGTTGTGA
Second: CTTCCGCA
The “PBM E-score” value of the first is higher: 0.0983 for the first, -0.0254 for the second.

First: CTATGGAA
Second: CGAGTGGC
The “PBM E-score” value of the first is lower: -0.0833 for the first, -0.0784 for the second.

Going from ACATATCA to CTGGAAAG, the “PBM E-score” value falls from 0.155 to 0.115.

Compared with CAAACATG, ACCTTGGC is lower in “PBM E-score” value: -0.00659 for the first, -0.0628 for the second.

Going from TGCGTCCA to AGTTCGTA, the “PBM E-score” value rises from -0.0526 to -0.00472.

Compared with AGCCAAAA, ACGTCGTC is lower in “PBM E-score” value: 0.024 for the first, -0.0295 for the second.

Compared with CACAATAC, CTTGGTTC is lower in “PBM E-score” value: 0.173 for the first, 0.0919 for the second.

Going from CCCGGTAC to ATGCATAA, the “PBM E-score” value rises from -0.206 to -0.0579.

First: CCTGCACA
Second: CTTGGTGC
The “PBM E-score” value of the first is higher: -0.00424 for the first, -0.181 for the second.

Going from GAATCCTA to ATGCATCC, the “PBM E-score” value falls from -0.0102 to -0.0344.

Going from AGTCTCGC to CTAGGGCA, the “PBM E-score” value falls from -0.0578 to -0.255.

Going from TAGGTGAA to CTCCCCAG, the “PBM E-score” value falls from 0.161 to -0.157.

Going from ATGTGTTA to TCTCTTCA, the “PBM E-score” value falls from 0.0963 to 0.057.

Compared with AAAGCCTA, CGCGTAAA is higher in “PBM E-score” value: -0.115 for the first, 0.0872 for the second.

Compared with GCGACCAA, AACGGCAA is lower in “PBM E-score” value: 0.248 for the first, 0.156 for the second.

Going from CATTCATA to ACCCTAAG, the “PBM E-score” value rises from 0.189 to 0.194.

Compared with CTCCTCAC, GTAGTCCA is higher in “PBM E-score” value: -0.298 for the first, -0.254 for the second.

First: TACCGTAA
Second: GCGCGGCA
The “PBM E-score” value of the first is lower: -0.0973 for the first, 0.0521 for the second.

Compared with AGGGCACG, AAAGGGTC is higher in “PBM E-score” value: -0.0801 for the first, 0.318 for the second.

Compared with GCTATCGA, TCAACACA is higher in “PBM E-score” value: 0.0244 for the first, 0.235 for the second.

First: AGTCCAAT
Second: CTCAATAA
The “PBM E-score” value of the first is higher: 0.0649 for the first, -0.103 for the second.

Going from CCTCGTGC to ACTCATAG, the “PBM E-score” value falls from -0.0093 to -0.0243.

First: GCTTAGCA
Second: CAAGCGAC
The “PBM E-score” value of the first is lower: -0.104 for the first, 0.0446 for the second.

Going from CCTCGGAA to GCACTAGA, the “PBM E-score” value falls from 0.0214 to -0.0716.

First: ATCAGAGC
Second: CTAGCCCC
The “PBM E-score” value of the first is higher: 0.0588 for the first, -0.112 for the second.

Compared with AACGATAG, ATACGTTA is higher in “PBM E-score” value: 0.0288 for the first, 0.0888 for the second.

First: ACCCTCTA
Second: ATCCGGAA
The “PBM E-score” value of the first is lower: -0.0379 for the first, 0.186 for the second.

First: AACGACAC
Second: ATAGTCCC
The “PBM E-score” value of the first is higher: 0.193 for the first, 0.0788 for the second.

Compared with CATCTTTA, AAAATTAT is higher in “PBM E-score” value: -0.125 for the first, 0.206 for the second.

Compared with AACTGCGT, ACATGGAT is higher in “PBM E-score” value: -0.135 for the first, -0.0502 for the second.

First: ATCTTCAT
Second: CTTGTTTC
The “PBM E-score” value of the first is higher: 0.084 for the first, 0.0127 for the second.

Going from GATGAACA to ACGGGCAG, the “PBM E-score” value rises from -0.00497 to 0.0319.

First: CCACAGTA
Second: GAGATTAA
The “PBM E-score” value of the first is lower: 0.00416 for the first, 0.0859 for the second.

First: ATTTGTTA
Second: AGAGGCTC
The “PBM E-score” value of the first is higher: 0.113 for the first, -0.273 for the second.

Going from CATTAATG to GGGACTAC, the “PBM E-score” value rises from 0.0471 to 0.0857.

Going from CTGATTAA to CTTTTCAC, the “PBM E-score” value falls from 0.114 to 0.0908.

Compared with AATATGCC, CTTGGTAC is higher in “PBM E-score” value: -0.0331 for the first, 0.121 for the second.

First: CAGTAATA
Second: CGAGCGGA
The “PBM E-score” value of the first is higher: 0.161 for the first, -0.205 for the second.

Compared with CAATGCAC, GAGGGCGC is lower in “PBM E-score” value: 0.0917 for the first, -0.117 for the second.

First: CATAGATG
Second: GGAGAGCA
The “PBM E-score” value of the first is higher: -0.155 for the first, -0.186 for the second.

First: GACGCAGA
Second: GGAAGGAC
The “PBM E-score” value of the first is higher: 0.152 for the first, -0.193 for the second.

Compared with GAGTTAAA, AATCGTTC is higher in “PBM E-score” value: -0.0372 for the first, 0.0566 for the second.

First: ATCTGAAG
Second: AAGTACAG
The “PBM E-score” value of the first is lower: -0.106 for the first, 0.0525 for the second.

Compared with AGTTGATG, CCTGGGTC is lower in “PBM E-score” value: 0.0887 for the first, -0.0664 for the second.

Going from CGCAGCAA to AAATTGCT, the “PBM E-score” value rises from -0.0726 to -0.0593.

Going from ATCCCAAG to GGGCGCTA, the “PBM E-score” value falls from -0.141 to -0.206.

Compared with ACCCACAC, TGTCTAAA is higher in “PBM E-score” value: 0.0599 for the first, 0.0915 for the second.

Going from ATCTTATC to CGTCCAAG, the “PBM E-score” value falls from 0.0921 to -0.158.

First: ACCCGCGA
Second: AGATGTCG
The “PBM E-score” value of the first is higher: 0.174 for the first, 0.0587 for the second.

First: AACTCGGG
Second: CCTAAGAC
The “PBM E-score” value of the first is higher: -0.0267 for the first, -0.165 for the second.

Going from AGGCGGCA to GGCAACCC, the “PBM E-score” value rises from -0.257 to -0.132.

First: CATGGTCG
Second: AACACATT
The “PBM E-score” value of the first is lower: -0.0584 for the first, 0.161 for the second.

First: CAACACTA
Second: ACTATGCT
The “PBM E-score” value of the first is higher: 0.147 for the first, 0.058 for the second.

Going from GAAATGGA to AGTTGTCG, the “PBM E-score” value rises from 0.06 to 0.155.

Compared with TTAAATAA, ACAAGGCG is lower in “PBM E-score” value: 0.186 for the first, 0.0141 for the second.

Going from TCGCGCAA to ATCCGTAA, the “PBM E-score” value falls from 0.0928 to -0.136.

Going from CGTGGAGC to CAGGAATG, the “PBM E-score” value falls from -0.0607 to -0.0903.

Going from CGCGCCTA to GAGCAGAA, the “PBM E-score” value falls from 0.0636 to -0.05.

First: TGAGTAAA
Second: GGATAGGA
The “PBM E-score” value of the first is higher: 0.159 for the first, -0.0321 for the second.

Compared with ACTTGGAT, AAAAAAAT is higher in “PBM E-score” value: 0.069 for the first, 0.14 for the second.

Compared with GAAAACGA, CTCAGAGC is lower in “PBM E-score” value: 0.0248 for the first, -0.145 for the second.

Going from TGGTAACA to AGAGTAGC, the “PBM E-score” value falls from -0.0489 to -0.189.

Going from AAATTACC to GAGAAAAC, the “PBM E-score” value rises from 0.0708 to 0.0966.

Going from ATAATTGG to ATATGAAA, the “PBM E-score” value rises from 0.128 to 0.197.

Going from AATATAGT to TCCGACCA, the “PBM E-score” value falls from 0.206 to -0.0775.

Going from CTGCAGTC to TATCAGAA, the “PBM E-score” value rises from -0.108 to 0.0656.

First: ATGAGTTC
Second: AGACTATG
The “PBM E-score” value of the first is higher: -0.0453 for the first, -0.111 for the second.

First: ATAACCGG
Second: GTATTATA
The “PBM E-score” value of the first is lower: -0.104 for the first, 0.254 for the second.

Compared with ACCGCGAT, AAGATCCC is higher in “PBM E-score” value: 0.097 for the first, 0.132 for the second.

Compared with AGGCGATC, GGATGAGA is higher in “PBM E-score” value: -0.106 for the first, -0.0943 for the second.

First: ATTGGTGA
Second: CGTGGTGC
The “PBM E-score” value of the first is higher: 0.0148 for the first, -0.232 for the second.

Compared with ATTACACA, CCACATGC is higher in “PBM E-score” value: 0.0862 for the first, 0.149 for the second.

Compared with GAGTTCAA, CGGTTTGC is lower in “PBM E-score” value: 0.0393 for the first, -0.0375 for the second.

First: AAAGATTG
Second: ACTTAGGG
The “PBM E-score” value of the first is lower: -0.0435 for the first, 0.0512 for the second.

Going from GGGCGGCA to CTGAATCC, the “PBM E-score” value rises from -0.163 to 0.0803.

Going from AGCCTCAG to CCGAGCGG, the “PBM E-score” value falls from 0.0157 to -0.165.

Compared with AGGAATCG, CATGGTGC is lower in “PBM E-score” value: 0.057 for the first, -0.0905 for the second.

First: GTCATTTA
Second: AGGGTTTG
The “PBM E-score” value of the first is lower: 0.016 for the first, 0.172 for the second.

First: CACCGCGC
Second: AAGTTTAG
The “PBM E-score” value of the first is lower: -0.0311 for the first, -0.0161 for the second.

Compared with ATCACACG, ATTCTGAA is higher in “PBM E-score” value: -0.0408 for the first, 0.0558 for the second.

Going from CGGTTTGA to CAGGAGCA, the “PBM E-score” value falls from -0.0448 to -0.0471.

Compared with GCGGCCGA, CATCGTCC is lower in “PBM E-score” value: 0.0944 for the first, 0.0229 for the second.

First: AAGACTGC
Second: AGCGACTG
The “PBM E-score” value of the first is lower: -0.221 for the first, -0.168 for the second.

Going from TAAATAGA to ACACAGCA, the “PBM E-score” value rises from -0.125 to 0.0931.

Going from AACAGCAG to AGATGCAA, the “PBM E-score” value falls from 0.0762 to 0.0554.

Going from AACAGACA to CAATTCCG, the “PBM E-score” value falls from 0.225 to 0.135.

Source: the supplement of paper PMC3334620
